Literature values as cited in US7622447B2, “Use of glutathione synthesis stimulating compounds in reducing insulin resistance” (DiaMedica Inc., priority 2002, dated 2009).

Tested on: cats
Details: arterial-venous glucose response to bolus insulin after atropine; cited from earlier work

SMILES: CN1[C@@H]2CC[C@H]1C[C@@H](OC(=O)C(CO)c1ccccc1)C2 (stereo partly shown) [atropine]
- glucose uptake across the hindlimbs (skeletal muscle): decreased
